Values quoted from earlier work as cited in patent publication US9428493B2, “Schweinfurthin analogues” (University of Iowa Research Foundation, priority 2012, dated 2016).
Some entries share one result that the patent states for a list of compounds.

Test system: National Cancer Institute 60 human tumor cell line
Conditions: mean over the 60-cell line panel; cited from earlier work

Schweinfurthin A
GI50: < 1 µM
